# Assay results

Data taken from PubChem BioAssay AID1159506, deposited by NCATS (2015).

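Luminescence from an EWS-FLI1 target-promoter (NR0B1) reporter, set against a CMV-promoter reporter, two days after silencing single genes in TC32 Ewing sarcoma cells. Each siRNA was applied at 20 nM. A z-score of the log NR0B1-over-CMV signal, less the median of siRNAs with the same seed; more negative means a stronger specific loss of the NR0B1 reporter.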

The strongest results of the screen are mostly left out here. Sequences are the guide (antisense) strand, without overhang.

strand	target gene	seed-corrected z-score
UCAUUGAUAGGCGUCAUCA	ADD2	0.8543
UACACGACAAGGUACUCUG	TNC	-0.9363
UGUUGUACAUCUUCAGCAG	NCMAP	-0.5692
AUACUCAUUAGCGAUAGUC	HSPA4	-0.7818
AAGUUAUUCACUCCUCUCU	OGFOD2	-1.257
UGCUGUUCAGGAAGGUAUC	OR7D2	-0.01048
AACACUUUUCUGAAUAUCC	INSL6	-0.7552
UACUCGACCACCACGUCCA	ABHD16B	-0.9984
AACAUGUCCACGGUUUCGG	UBE4B	-1.24
AUCUUGUCCAUAGAGGGAG	LOC729126	0.8744
UCCUUGUCGACUUUCAGCC	PANK4	-1.149
UGAGCGGUCAAGCUUGAGC	TMEM213	1.275
UCACUUGUGAAUUCCAGUA	TMEM26	-1.943
UGUGCUGUUUGGCAGAUGG	C16orf86	0.1623
UGCUGUUGUACAUUCAACC	AMTN	-0.9696
UAGCUGUUCUGCGAAGUUC	MED18	-1.04
UUCCAUAAGAGUAAGGCGG	GOLPH3L	0.2015
AAUACGUUGAAGACGAUCC	HCN3	-0.8755
UACUAUUCCAUGUAGAUAC	ASZ1	-0.3164
UCUAAGACUAUGUCCAUUA	UBE2NL	-0.4147
UAAGUGGAUAUCACUACUG	OXGR1	0.08168
UAAGAGCUUCUGAACAACC	MBOAT2	-0.2833
AUUAUUACCACCCAUUUCC	CST9	0.3626
AUCGGAUCCAAAGAGAUCA	EEF1B2P6	0.5803
AGAGCAAGUGUACUUGGCG	RPL37A	-0.3965
UUUAAGGUCGCAUUGGUUG	PTP4A1	0.003119
AAAUGUACAUCGAUGAGUG	TNNT1	-1.978
UUUUUGUCGAGCUCCAGAG	DHRS7C	0.146
UCUGUUGGGACAGUGAUCC	NUP214	-0.6355
UAUGCUCAAAUUAAGUCCC	SUPV3L1	-0.7538
AUCUGAAUUAGCAUAAAUC	C9orf135	0.4473
UCCAGUAUCAAGAAUAUCU	NTS	-0.2166
UGCUCUUCUACCCUUUGCC	ANXA2	0.1197
UUUGGGCACAUCCUGAAGC	ENTPD2	0.7537
UCGAUGAAUACUUAAGUGC	WAC	-0.1811
UUGAUUCCAAGGGCUGUAG	IQCJ	1.505
AACCAUAUGAACAUCGGUG	FAF1	0.6921
UACGAAACAAAUAUACUGA	GTPBP3	-0.1718
UGAAAAGUUAUACUGAUCC	LAPTM4B	-0.2916
UGAGAUACAGUGUACCAGC	MTMR14	-0.06497
AAUAUUUCUGGUGUGAGGC	DLK2	0.433
UUCCGAGCAUUGAAUUUCU	CCDC94	0.6051
UUAGAUACUUUGUCAUUGC	HSD17B3	0.5132
UGAAGGGACAUCUGAUCCG	SCGB1D2	-0.8786
ACCGGUUUUGUAAUAAUCC	KCTD20	0.2112
UCACGUGCAAUGUUAUUGC	TBC1D21	0.4021
UUCUUGAUUAUGAUCAAUG	CARNMT1	0.7225
AAAUCGAGCAUAGCCAGGC	C19orf60	-0.5328
UACUCUUCAAGCAAUAGCC	EIF2D	0.9036
UCUCCUGUAACUCCUAAGC	MEIKIN	0.4817
UUGGUAACUGGAUUAUACC	CPD	-0.1485
AUAGUUGUCCGUCCAGUUC	OGFR	-1.532
UUCAGGAGUACAUUCUUUU	SMPX	0.2673
AUAGGAUUAUCUGUUGCGC	HAL	1.377
GUCUGAAUGGAGAAGUUCA	UCA1	-0.1615
UACAACUCUGUACUGUUCC	ERC1	-0.227
UUAUUCUAGAGGUUAGCUG	DENND6A	-0.1183
UUAGCUAACUAUAUGAAAG	HMGB1	0.7603
UCUUUGCUCAUAAGGGUGC	HMGB4	1.287
AAAAAGAUUUGAUUCAUUC	EBPL	0.1964
AAGUCGUUUAAGAAUGUCC	DIAPH1	1.343
UGUAGUAUGAGCAUGUUAG	MROH3P	-0.8488
UGAAGUGCCUGCUUGAUCC	CCDC167	0.03995
AUGGUAUCAACUGGUAAUG	ATAD5	-0.8578
UUUCAUUUUGUGAACACAC	MAF	0.3759
UUUACAAGUCUGUUGAUCC	ANO6	-0.2486
UUGUCCACACCUGCAAUGC	RAPSN	-0.3636
AGUUCUUCCAGAAUUAUCU	BCAN	-0.2684
UAUGUUCUGAACCAUGCUC	CA1	0.7632

The first 8 entries again:

strand,target gene,seed-corrected z-score
UCAUUGAUAGGCGUCAUCA,ADD2,0.8543
UACACGACAAGGUACUCUG,TNC,-0.9363
UGUUGUACAUCUUCAGCAG,NCMAP,-0.5692
AUACUCAUUAGCGAUAGUC,HSPA4,-0.7818
AAGUUAUUCACUCCUCUCU,OGFOD2,-1.257
UGCUGUUCAGGAAGGUAUC,OR7D2,-0.01048
AACACUUUUCUGAAUAUCC,INSL6,-0.7552
UACUCGACCACCACGUCCA,ABHD16B,-0.9984